Measurements: the supplement of paper PMC8728848
Some of the results follow.

Tests used:
Assay in all cases: glycan array binding signal (z-score within array); higher = stronger binding
Details in all cases: glycan notation: IUPAC condensed, linker removed
[1] = target: Gal(a1-3)Gal(b1-4)GlcNAc(b1-2)Man
In short: (§1)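 The binding signal is a Z-score computed within each array. Data were drawn from 3228 arrays in the Consortium for Functional Glycomics database, restricted to those with a known protein sequence. Scores were averaged over arrays of the same protein sequence at different concentrations or buffers, and over linkers, and negative values can be taken as non-binding.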

[2] = target: Gal(a1-3)Gal(b1-4)GlcNAc(b1-2)Man(a1-3)[Gal(a1-3)Gal(b1-4)GlcNAc(b1-2)Man(a1-6)]Man(b1-4)GlcNAc(b1-4)GlcNAc
In short: as §1

[3] = target: Gal(a1-3)Gal(b1-4)GlcNAc(b1-3)GalNAc
In short: as §1

[4] = target: Gal(a1-3)Gal(b1-4)GlcNAc(b1-6)GalNAc
In short: as §1

[5] = target: Gal(a1-3)Gal(b1-4)[Fuc(a1-3)]GlcNAc
In short: as §1

[6] = target: Gal(a1-3)Gal(b1-4)[Fuc(a1-3)]GlcNAc(b1-2)Man(a1-3)[Gal(a1-3)Gal(b1-4)[Fuc(a1-3)]GlcNAc(b1-2)Man(a1-6)]Man(b1-4)GlcNAc(b1-4)GlcNAc
In short: as §1

Gal(a1-3)GalNAc = target: Gal(a1-3)GalNAc
In short: as §1

[7] = target: Gal(a1-3)[Gal(a1-4)]Gal(b1-4)GlcNAc
In short: as §1

[8] = target: Gal(a1-4)Gal(b1-3)GlcNAc(b1-2)Man(a1-3)[Gal(a1-4)Gal(b1-3)GlcNAc(b1-2)Man(a1-6)]Man(b1-4)GlcNAc(b1-4)GlcNAc
In short: as §1

Gal(a1-4)Gal(b1-4)Glc = target: Gal(a1-4)Gal(b1-4)Glc
In short: as §1

Gal(a1-4)Gal(b1-4)GlcNAc = target: Gal(a1-4)Gal(b1-4)GlcNAc
In short: as §1

[9] = target: Gal(a1-4)Gal(b1-4)GlcNAc(b1-2)Man(a1-3)[Gal(a1-4)Gal(b1-4)GlcNAc(b1-2)Man(a1-6)]Man(b1-4)GlcNAc(b1-4)GlcNAc
In short: as §1

[10] = target: Gal(a1-4)Gal(b1-4)GlcNAc(b1-3)Gal(b1-4)Glc
In short: as §1

Gal(a1-4)GlcNAc = target: Gal(a1-4)GlcNAc
In short: as §1

Gal(a1-6)Glc = target: Gal(a1-6)Glc
In short: as §1

Gal(b1-2)Gal = target: Gal(b1-2)Gal
In short: as §1

Gal(b1-3)Gal = target: Gal(b1-3)Gal
In short: as §1

Gal(b1-3)Gal(b1-4)GlcNAc = target: Gal(b1-3)Gal(b1-4)GlcNAc
In short: as §1

Gal(b1-3)GalNAc = target: Gal(b1-3)GalNAc
In short: as §1

[11] = target: Gal(b1-3)GalNAc(a1-3)[Fuc(a1-2)]Gal(b1-4)Glc
In short: as §1

[12] = target: Gal(b1-3)GalNAc(a1-3)[Fuc(a1-2)]Gal(b1-4)GlcNAc
In short: as §1

Gal(b1-3)GalNAc(b1-3)Gal = target: Gal(b1-3)GalNAc(b1-3)Gal
In short: as §1

[13] = target: Gal(b1-3)GalNAc(b1-3)Gal(a1-4)Gal(b1-4)Glc
In short: as §1

[14] = target: Gal(b1-3)GalNAc(b1-4)Gal(b1-4)Glc
In short: as §1

[15] = target: Gal(b1-3)GalNAc(b1-4)[Neu5Ac(a2-3)]Gal(b1-4)Glc
In short: as §1

Gal(b1-3)GlcNAc = target: Gal(b1-3)GlcNAc
In short: as §1

[16] = target: Gal(b1-3)GlcNAc(a1-3)Gal(b1-4)GlcNAc
In short: as §1

[17] = target: Gal(b1-3)GlcNAc(a1-6)Gal(b1-4)GlcNAc
In short: as §1

Gal(b1-3)GlcNAc(b1-2)Man = target: Gal(b1-3)GlcNAc(b1-2)Man
In short: as §1

[18] = target: Gal(b1-3)GlcNAc(b1-2)Man(a1-3)[Gal(b1-3)GlcNAc(b1-2)Man(a1-6)]Man(b1-4)GlcNAc(b1-4)GlcNAc
In short: as §1

[19] = target: Gal(b1-3)GlcNAc(b1-2)Man(a1-3)[Gal(b1-3)GlcNAc(b1-2)Man(a1-6)]Man(b1-4)GlcNAc(b1-4)[Fuc(a1-6)]GlcNAc
In short: as §1

[20] = target: Gal(b1-3)GlcNAc(b1-2)Man(a1-3)[GlcNAc(b1-4)][Gal(b1-3)GlcNAc(b1-2)Man(a1-6)]Man(b1-4)GlcNAc(b1-4)GlcNAc
In short: as §1

[21] = target: Gal(b1-3)GlcNAc(b1-2)[Gal(b1-3)GlcNAc(b1-6)]Man(a1-6)[Gal(b1-3)GlcNAc(b1-2)Man(a1-3)]Man(b1-4)GlcNAc(b1-4)GlcNAc
In short: as §1

[22] = target: Gal(b1-3)GlcNAc(b1-3)Gal(b1-3)GlcNAc
In short: as §1

[23] = target: Gal(b1-3)GlcNAc(b1-3)Gal(b1-4)Glc
In short: as §1

[24] = target: Gal(b1-3)GlcNAc(b1-3)Gal(b1-4)GlcNAc
In short: as §1

[25] = target: Gal(b1-3)GlcNAc(b1-3)Gal(b1-4)GlcNAc(b1-2)Man(a1-3)[Gal(b1-3)GlcNAc(b1-3)Gal(b1-4)GlcNAc(b1-2)Man(a1-6)]Man(b1-4)GlcNAc(b1-4)GlcNAc
In short: as §1

[26] = target: Gal(b1-3)GlcNAc(b1-3)Gal(b1-4)GlcNAc(b1-2)[Gal(b1-3)GlcNAc(b1-3)Gal(b1-4)GlcNAc(b1-6)]Man(a1-6)[Gal(b1-3)GlcNAc(b1-3)Gal(b1-4)GlcNAc(b1-2)Man(a1-3)]Man(b1-4)GlcNAc(b1-4)[Fuc(a1-6)]GlcNAc
In short: as §1

[27] = target: Gal(b1-3)GlcNAc(b1-3)Gal(b1-4)GlcNAc(b1-3)Gal(b1-4)GlcNAc(b1-2)[Gal(b1-3)GlcNAc(b1-3)Gal(b1-4)GlcNAc(b1-3)Gal(b1-4)GlcNAc(b1-6)]Man(a1-6)[Gal(b1-3)GlcNAc(b1-3)Gal(b1-4)GlcNAc(b1-3)Gal(b1-4)GlcNAc(b1-2)Man(a1-3)]Man(b1-4)GlcNAc(b1-4)[Fuc(a1-6)]GlcNAc
In short: as §1

[28] = target: Gal(b1-3)GlcNAc(b1-3)Gal(b1-4)GlcNAc(b1-6)[Gal(b1-3)GlcNAc(b1-3)]Gal(b1-4)Glc
In short: as §1

[29] = target: Gal(b1-3)GlcNAc(b1-3)Gal(b1-4)[Fuc(a1-3)]GlcNAc
In short: as §1

[30] = target: Gal(b1-3)GlcNAc(b1-3)Gal(b1-4)[Fuc(a1-3)]GlcNAc(b1-6)[Gal(b1-3)GlcNAc(b1-3)]Gal(b1-4)Glc
In short: as §1

[31] = target: Gal(b1-3)GlcNAc(b1-3)GalNAc
In short: as §1

[32] = target: Gal(b1-3)GlcNAc(b1-6)Gal(b1-4)GlcNAc
In short: as §1

[33] = target: Gal(b1-3)GlcNAc(b1-6)GalNAc
In short: as §1

B1: EUL D1A second (Oryza sativa) (protein)
chain: GAATACTIGGVPVHTVRVFSAAGEDYCLTVRNGTACLAPKNPRDDYQHWIKDMRHSNKIRDEEGYPAFALVNKVTGEAIKHSTGQGHPVKLVPYNPEYQDESVLWTESKDVGKGFRCIRMVNNIYLNFDAFHGDKDHGGIHDGTEIVLWKWCEGDNQRWKILPWILEQKLISEEDLNSAVDHHHHHH
For B1, the “glycan array binding signal (z-score)” value [1] was -0.016, the “glycan array binding signal (z-score)” value [2] was 0.201 and the “glycan array binding signal (z-score)” value [3] was -0.802. For the same binder, the “glycan array binding signal (z-score)” value [4] was -0.557, the “glycan array binding signal (z-score)” value [5] was -0.74 and the “glycan array binding signal (z-score)” value [6] was 0.897. The “glycan array binding signal (z-score)” value (Gal(a1-3)GalNAc) was -1.42, the “glycan array binding signal (z-score)” value [7] was 0.807 and the “glycan array binding signal (z-score)” value [8] was -0.584. The “glycan array binding signal (z-score)” value (Gal(a1-4)Gal(b1-4)Glc) was -1.31, the “glycan array binding signal (z-score)” value (Gal(a1-4)Gal(b1-4)GlcNAc) was 0.105 and the “glycan array binding signal (z-score)” value [9] was -0.008. For the same binder, the “glycan array binding signal (z-score)” value [10] was -1.1, the “glycan array binding signal (z-score)” value (Gal(a1-4)GlcNAc) was -1.01 and the “glycan array binding signal (z-score)” value (Gal(a1-6)Glc) was -0.631. The “glycan array binding signal (z-score)” value (Gal(b1-2)Gal) was -0.669, the “glycan array binding signal (z-score)” value (Gal(b1-3)Gal) was -0.342 and the “glycan array binding signal (z-score)” value (Gal(b1-3)Gal(b1-4)GlcNAc) was -0.765. The “glycan array binding signal (z-score)” value (Gal(b1-3)GalNAc) was -0.524, the “glycan array binding signal (z-score)” value [11] was 0.165 and the “glycan array binding signal (z-score)” value [12] was -0.273. The “glycan array binding signal (z-score)” value (Gal(b1-3)GalNAc(b1-3)Gal) was -0.449, the “glycan array binding signal (z-score)” value [13] was 2.08 and the “glycan array binding signal (z-score)” value [14] was -0.561. For the same binder, the “glycan array binding signal (z-score)” value [15] was 0.005, the “glycan array binding signal (z-score)” value (Gal(b1-3)GlcNAc) was -0.548 and the “glycan array binding signal (z-score)” value [16] was -0.393. The “glycan array binding signal (z-score)” value [17] was 0.922, the “glycan array binding signal (z-score)” value (Gal(b1-3)GlcNAc(b1-2)Man) was 1.1 and the “glycan array binding signal (z-score)” value [18] was 0.654. For the same binder, the “glycan array binding signal (z-score)” value [19] was -0.425, the “glycan array binding signal (z-score)” value [20] was -0.68 and the “glycan array binding signal (z-score)” value [21] was -0.197. For the same binder, the “glycan array binding signal (z-score)” value [22] was 1.27, the “glycan array binding signal (z-score)” value [23] was -0.887 and the “glycan array binding signal (z-score)” value [24] was 0.289. For the same binder, the “glycan array binding signal (z-score)” value [25] was -0.889, the “glycan array binding signal (z-score)” value [26] was 4.86 and the “glycan array binding signal (z-score)” value [27] was 4.47. For the same binder, the “glycan array binding signal (z-score)” value [28] was -0.233, the “glycan array binding signal (z-score)” value [29] was -1.35 and the “glycan array binding signal (z-score)” value [30] was -0.953. For the same binder, the “glycan array binding signal (z-score)” value [31] was -1.77, the “glycan array binding signal (z-score)” value [32] was -0.044 and the “glycan array binding signal (z-score)” value [33] was 0.907.
